Experimental data published in publication PMC4726734.

Target: T1, GA-binding protein alpha subunit (GABPα) (human (endogenous in HDF-TERT)) (UniProt Q06546)
T1 sequence: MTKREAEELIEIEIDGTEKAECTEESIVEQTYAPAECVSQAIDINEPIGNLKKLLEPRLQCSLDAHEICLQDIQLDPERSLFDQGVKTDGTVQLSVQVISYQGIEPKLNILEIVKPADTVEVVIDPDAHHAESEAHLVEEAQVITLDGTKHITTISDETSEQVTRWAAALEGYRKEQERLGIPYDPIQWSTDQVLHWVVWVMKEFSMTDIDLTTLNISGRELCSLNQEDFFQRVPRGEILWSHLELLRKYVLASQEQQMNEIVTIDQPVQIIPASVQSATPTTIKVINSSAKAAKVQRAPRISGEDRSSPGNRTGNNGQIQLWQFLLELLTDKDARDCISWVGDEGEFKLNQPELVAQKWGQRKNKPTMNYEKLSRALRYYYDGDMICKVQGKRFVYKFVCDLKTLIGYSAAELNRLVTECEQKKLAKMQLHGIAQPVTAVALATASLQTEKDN
Assay: co-IP

binding: binds
Substance: GA-binding protein beta subunit (GABPβ) (human (endogenous in HDF-TERT))

No constants are given. Whether binding was seen depends on the method and setting. Binding seen in cells or lysates may run through a third protein. A result given as binding can be weak or reduced; the word gives no strength.
